This test concerns the target T1, TRIM35 (as used in the co-IP with p300, Fig. S2B) (human) (UniProt Q9UPQ4).
T1 sequence: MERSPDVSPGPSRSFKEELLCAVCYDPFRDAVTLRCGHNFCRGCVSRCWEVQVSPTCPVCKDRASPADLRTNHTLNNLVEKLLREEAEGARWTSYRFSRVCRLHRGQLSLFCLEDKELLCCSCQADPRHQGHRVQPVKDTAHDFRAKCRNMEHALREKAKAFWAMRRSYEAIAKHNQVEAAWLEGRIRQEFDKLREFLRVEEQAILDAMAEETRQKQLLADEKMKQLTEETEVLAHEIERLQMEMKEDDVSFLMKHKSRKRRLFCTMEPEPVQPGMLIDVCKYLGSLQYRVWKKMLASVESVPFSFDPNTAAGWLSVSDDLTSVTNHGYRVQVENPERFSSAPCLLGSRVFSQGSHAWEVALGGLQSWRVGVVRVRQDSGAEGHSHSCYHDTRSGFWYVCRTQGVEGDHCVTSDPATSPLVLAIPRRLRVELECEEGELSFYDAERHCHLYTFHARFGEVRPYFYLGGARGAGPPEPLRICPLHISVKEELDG
The experiment in a line: co-IP; TRIM35 and p300, each precipitated in turn (Fig. S2B); cells not given; western blot.

Protein sequences, listed by entry. Tags and fused reporters are not part of them.
UniProt Q09472: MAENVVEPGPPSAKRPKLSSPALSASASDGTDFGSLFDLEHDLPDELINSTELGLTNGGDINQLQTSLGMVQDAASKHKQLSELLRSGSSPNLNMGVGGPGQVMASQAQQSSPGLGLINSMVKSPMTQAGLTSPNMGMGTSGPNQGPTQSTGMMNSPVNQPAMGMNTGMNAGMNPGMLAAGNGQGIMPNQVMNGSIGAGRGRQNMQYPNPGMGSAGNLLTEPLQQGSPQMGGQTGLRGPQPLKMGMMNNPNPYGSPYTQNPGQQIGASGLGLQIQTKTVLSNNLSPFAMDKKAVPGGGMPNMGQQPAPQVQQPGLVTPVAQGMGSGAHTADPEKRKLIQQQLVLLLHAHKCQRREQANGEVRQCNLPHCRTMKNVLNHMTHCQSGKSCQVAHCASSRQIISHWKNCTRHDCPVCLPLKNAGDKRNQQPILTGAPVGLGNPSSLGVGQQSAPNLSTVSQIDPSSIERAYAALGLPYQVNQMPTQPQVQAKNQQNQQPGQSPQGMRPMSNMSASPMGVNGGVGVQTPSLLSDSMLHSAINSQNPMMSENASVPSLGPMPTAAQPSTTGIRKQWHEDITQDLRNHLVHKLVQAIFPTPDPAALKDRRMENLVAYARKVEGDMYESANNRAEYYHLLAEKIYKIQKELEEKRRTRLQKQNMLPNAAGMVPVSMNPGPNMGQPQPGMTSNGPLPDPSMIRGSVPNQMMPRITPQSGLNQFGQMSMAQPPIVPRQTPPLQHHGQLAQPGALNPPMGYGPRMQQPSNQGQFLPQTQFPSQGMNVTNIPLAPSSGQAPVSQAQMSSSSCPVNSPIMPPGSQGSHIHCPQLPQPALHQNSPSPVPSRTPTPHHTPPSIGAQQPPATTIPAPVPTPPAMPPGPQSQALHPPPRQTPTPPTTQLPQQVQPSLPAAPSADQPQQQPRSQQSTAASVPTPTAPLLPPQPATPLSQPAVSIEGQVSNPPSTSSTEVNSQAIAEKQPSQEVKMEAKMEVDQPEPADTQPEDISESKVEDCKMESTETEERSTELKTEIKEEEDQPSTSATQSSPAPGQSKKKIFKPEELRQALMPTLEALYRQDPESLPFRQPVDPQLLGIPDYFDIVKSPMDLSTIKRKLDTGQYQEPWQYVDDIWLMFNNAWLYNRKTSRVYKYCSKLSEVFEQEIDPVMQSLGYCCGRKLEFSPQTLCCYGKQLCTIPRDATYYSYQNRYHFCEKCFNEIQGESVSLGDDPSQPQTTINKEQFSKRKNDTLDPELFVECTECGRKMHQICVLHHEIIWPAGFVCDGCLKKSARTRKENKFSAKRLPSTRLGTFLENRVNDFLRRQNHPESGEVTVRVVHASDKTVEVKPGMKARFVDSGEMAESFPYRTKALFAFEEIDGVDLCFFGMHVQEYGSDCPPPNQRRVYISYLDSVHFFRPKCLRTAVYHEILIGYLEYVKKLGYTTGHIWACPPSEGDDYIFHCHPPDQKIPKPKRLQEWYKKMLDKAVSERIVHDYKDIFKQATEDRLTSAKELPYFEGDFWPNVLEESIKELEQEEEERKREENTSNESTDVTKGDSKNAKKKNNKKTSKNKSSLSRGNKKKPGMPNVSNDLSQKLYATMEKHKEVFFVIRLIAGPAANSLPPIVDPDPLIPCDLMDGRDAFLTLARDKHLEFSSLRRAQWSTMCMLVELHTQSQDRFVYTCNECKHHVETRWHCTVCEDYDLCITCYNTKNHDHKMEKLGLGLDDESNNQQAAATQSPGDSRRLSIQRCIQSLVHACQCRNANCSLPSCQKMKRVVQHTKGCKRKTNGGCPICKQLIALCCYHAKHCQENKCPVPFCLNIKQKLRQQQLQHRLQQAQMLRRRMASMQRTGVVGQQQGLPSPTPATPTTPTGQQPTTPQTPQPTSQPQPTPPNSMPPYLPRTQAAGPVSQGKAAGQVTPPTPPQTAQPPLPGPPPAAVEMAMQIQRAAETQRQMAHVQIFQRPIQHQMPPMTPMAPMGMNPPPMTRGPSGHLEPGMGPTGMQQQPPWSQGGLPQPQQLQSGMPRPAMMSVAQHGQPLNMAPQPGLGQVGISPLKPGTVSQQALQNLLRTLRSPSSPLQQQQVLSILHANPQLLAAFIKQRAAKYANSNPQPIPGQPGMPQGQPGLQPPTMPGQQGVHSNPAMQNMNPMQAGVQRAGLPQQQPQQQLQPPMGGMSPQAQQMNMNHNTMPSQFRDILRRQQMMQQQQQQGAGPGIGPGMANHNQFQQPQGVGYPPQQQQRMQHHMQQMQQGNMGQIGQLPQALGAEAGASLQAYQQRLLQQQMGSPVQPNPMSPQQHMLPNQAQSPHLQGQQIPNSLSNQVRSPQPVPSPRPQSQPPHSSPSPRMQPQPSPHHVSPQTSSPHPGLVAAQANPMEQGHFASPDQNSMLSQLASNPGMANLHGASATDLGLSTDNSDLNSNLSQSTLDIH

These are yes or no findings as the source states them, for the method shown. In cells and extracts the contact can be indirect.

Turning to “p300 (from UniProt Q09472 1-2414) (enzyme)”, the binding entry is “no binding”.
